Changes are numbered by the printed parent chain. These are yes or no findings as the source states them, for the method shown. For some of these results: A result given as binding can be weak or reduced; the word gives no strength.
Key:
[1] = biological target: T1, C1r p.(D290G) with additional p.S654A mutation (human) (UniProt P00736); assay: SEC; purified tetramers on Superose 6 Increase 10/300 GL, 50 mM Tris, 150 mM NaCl, pH 7.4, 5 mM EDTA, 0.5 ml/min; both purified
T1 sequence: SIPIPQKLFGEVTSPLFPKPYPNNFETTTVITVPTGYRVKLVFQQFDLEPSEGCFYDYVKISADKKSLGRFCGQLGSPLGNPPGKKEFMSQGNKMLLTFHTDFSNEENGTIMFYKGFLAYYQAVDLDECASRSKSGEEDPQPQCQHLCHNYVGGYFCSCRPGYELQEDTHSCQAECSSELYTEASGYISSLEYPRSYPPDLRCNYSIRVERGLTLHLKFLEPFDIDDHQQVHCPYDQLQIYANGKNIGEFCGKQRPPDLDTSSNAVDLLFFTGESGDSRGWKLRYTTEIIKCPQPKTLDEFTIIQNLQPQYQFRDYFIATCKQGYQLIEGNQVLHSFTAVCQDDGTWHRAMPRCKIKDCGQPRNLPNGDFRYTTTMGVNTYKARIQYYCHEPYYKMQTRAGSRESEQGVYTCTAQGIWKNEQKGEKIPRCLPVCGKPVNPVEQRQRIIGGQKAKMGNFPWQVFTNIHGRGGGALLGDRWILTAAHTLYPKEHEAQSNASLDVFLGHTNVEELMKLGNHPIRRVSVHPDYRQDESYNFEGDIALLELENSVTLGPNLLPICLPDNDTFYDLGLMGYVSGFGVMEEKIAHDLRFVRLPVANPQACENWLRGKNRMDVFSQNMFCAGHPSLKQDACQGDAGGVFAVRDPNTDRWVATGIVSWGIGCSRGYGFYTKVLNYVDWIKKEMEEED

[2] = biological target: T2, C1r p.S654A (enzymatically inactive proenzyme C1r 'WT') (human) (UniProt P00736); assay: as above
T2 sequence: T1 sequence with G273D

[3] = biological target: T1, C1r p.(D290G) with additional p.S654A mutation (human); assay: SEC; purified tetramers on Superose 6 Increase 10/300 GL, 50 mM Tris, 150 mM NaCl, pH 7.4, 2 mM CaCl2, 0.5 ml/min; both purified
[4] = biological target: T2, C1r p.S654A (enzymatically inactive proenzyme C1r 'WT') (human); assay: as above

Substance: C1s (proenzyme, WT) (human)
- binding [1]: no binding (only with 5 mM EDTA)
- binding [2]: no binding (only with 5 mM EDTA)
- binding [3]: binds
- binding [4]: binds

From PMC6848165, “C1R Mutations Trigger Constitutive Complement 1 Activation in Periodontal Ehlers-Danlos Syndrome” (Frontiers in Immunology, 2019)
